Reference: US20210171589A1 (BLAZE BIOSCIENCE, INC., priority 2018, published 2021)

Test: general procedure: Fmoc solid-phase peptide synthesis
Details: whole synthesis, TFA salt, several disulfide bridges, sequence written open

Sequence | final purity (method not given)
GSGVPINVRCRGSRDCLDPCRRAGMRFGRCINSRCHCTP | 96.1%
RCRGSRDCLDPCRRAGMRFGRCINSRCHCTP | 96.8%

End groups of sequences in plain letters are not given here.
